Laboratory results as given in PMC7819943, “Rice protein-binding microarrays: a tool to detect cis-acting elements near promoter regions in rice”.
This is one part of the list.

Each sequence was assayed against T1, OsSMF1 (Oryza sativa, UniProt Q6ZLB0 1-436) (assay: protein-binding microarray (RPBM); PBS, 2% BSA, 51.3 ng/ul salmon testes DNA, 50 uM zinc acetate, 200 nM TF, 25 C, 1 h; high values mean tight binding). Settings: protein: recombinant; tags: N-terminal polyhistidine and DsRed monomer fusion (pET32a); chain copies: 2; label: CyDye5-dUTP incorporated in the synthesized complementary strand; 3' TTTTT single-stranded linker to array surface; dsDNA, one strand shown.
T1 sequence: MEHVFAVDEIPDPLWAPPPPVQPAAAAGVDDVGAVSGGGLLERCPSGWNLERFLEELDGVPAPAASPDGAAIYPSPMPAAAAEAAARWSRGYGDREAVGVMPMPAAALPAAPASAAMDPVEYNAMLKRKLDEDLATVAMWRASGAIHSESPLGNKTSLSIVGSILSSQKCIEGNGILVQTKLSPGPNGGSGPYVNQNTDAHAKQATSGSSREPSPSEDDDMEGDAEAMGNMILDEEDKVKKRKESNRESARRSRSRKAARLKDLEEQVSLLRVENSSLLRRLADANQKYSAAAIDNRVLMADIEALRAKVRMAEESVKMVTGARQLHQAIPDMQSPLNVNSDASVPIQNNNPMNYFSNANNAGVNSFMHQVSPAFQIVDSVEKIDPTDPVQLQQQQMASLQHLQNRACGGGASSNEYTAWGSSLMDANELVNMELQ
How it was run: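 Binding signal is reported as fluorescence intensity per feature (arbitrary units) from an Axon 4000B scanner. Incubation used 200 nM of each Ni–NTA-purified, N-terminally polyhistidine- and DsRed-fused transcription factor from E. coli BL21-CodonPlus on a double-stranded custom Agilent array for 1 h at 25 °C, with 50 µM zinc acetate in the buffer, followed by washing.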

Sequence	binding signal
TCAGTGGCTTAAAGTCTCAATGCGTCACGCGCGCCGGGCTCGGAGTCACCTAGTGCAG	7180 fluorescence intensity (a.u.)
GGGGCAAAATAAGGTTTACACATGCATGAACCAGAAGAAACGGAGTCACCTAGTGCAG	3170 fluorescence intensity (a.u.)
TATATAAAATGCATCAGATCAGATGCATCGATGAACCAGTCGGAGTCACCTAGTGCAG	3240 fluorescence intensity (a.u.)
CCAAAGCGCTCAGGCCCGTCCAGCCCACGTAGACGACACGCGGAGTCACCTAGTGCAG	3210 fluorescence intensity (a.u.)
TCCCGGCGTGTGGTGGTCGGAGGTTGCCATTCATTGGCCGCGGAGTCACCTAGTGCAG	4310 fluorescence intensity (a.u.)
CCCCATTGACGCCCACGCACGCCCACACCTCCCCATCAACCGGAGTCACCTAGTGCAG	3280 fluorescence intensity (a.u.)
CGATGGCTACGGAGGAGGCGGCTCCACGACGCTACCGTCGCGGAGTCACCTAGTGCAG	16600 fluorescence intensity (a.u.)
TCAACGATATACATGATCAGAGTAGGTGACGTGACGACATCGGAGTCACCTAGTGCAG	5400 fluorescence intensity (a.u.)
CGACGCCGGGGAGTGCCCCTTCTTGAGCGACCAGGTCACCCGGAGTCACCTAGTGCAG	3240 fluorescence intensity (a.u.)
GCCGCGGGGTCATACAACGTTGTGGATGACGTAGATGGGCCGGAGTCACCTAGTGCAG	7500 fluorescence intensity (a.u.)
AGCATGAATACTTTTGTGCAAGCTAACGCTGAGCACGATGCGGAGTCACCTAGTGCAG	3980 fluorescence intensity (a.u.)
GCAAAGCCCTCCTCTTCAGCTCTTCTGACGGAAAAGACCACGGAGTCACCTAGTGCAG	3830 fluorescence intensity (a.u.)
ACCCGACCTGCCACGTCGGACCAAGTCCAACGCATTTCCGCGGAGTCACCTAGTGCAG	12100 fluorescence intensity (a.u.)
CGTCGATGGCGTGCGTGAGAGCCTCCACGCCTTGCTGCCGCGGAGTCACCTAGTGCAG	4660 fluorescence intensity (a.u.)
CAGAGACATCCACACATTCGTCAGCTCGCTGGCGTCCACGCGGAGTCACCTAGTGCAG	3870 fluorescence intensity (a.u.)
AGAATTTAAAAGATTCCTAACCAGGCAAACGAACAGAGCCCGGAGTCACCTAGTGCAG	16000 fluorescence intensity (a.u.)
TGTCTCCTTCGTCACTGGCCACGGCGGTATATAACTCCCTCGGAGTCACCTAGTGCAG	23600 fluorescence intensity (a.u.)
ATTGACAAGATAGATTGTTGCCCAATTTTCGAAGATGCTCCGGAGTCACCTAGTGCAG	13400 fluorescence intensity (a.u.)
GGGTTCCGTCCATTCCGCGCCGTTAAATGCATGTTCATTCCGGAGTCACCTAGTGCAG	3390 fluorescence intensity (a.u.)
CGTTGCGTTGCGTGGCGTCCTCTTCCCTCCAGTCCCCGCCCGGAGTCACCTAGTGCAG	5560 fluorescence intensity (a.u.)
GCCGCGATGTCATCGCTAAGTCCTGATGCCGTGTCGCCGTCGGAGTCACCTAGTGCAG	5130 fluorescence intensity (a.u.)

Sequence	binding signal
CGCGCCGTCGCGGATCACCTGCAGGCCGCCGACGTGGTCCCGGAGTCACCTAGTGCAG	6950 fluorescence intensity (a.u.)
TCCGAGACTGTTAGATCCCCGGGCCCACACGTCAGTCTCACGGAGTCACCTAGTGCAG	3820 fluorescence intensity (a.u.)
TTGGTGTTGAATACCTTTCAGATGTGGCATCTCAACTGGGCGGAGTCACCTAGTGCAG	4300 fluorescence intensity (a.u.)
CGGCTTCCCTGGTGGCTCAAGACACGTCATTCCGATCCGTCGGAGTCACCTAGTGCAG	16900 fluorescence intensity (a.u.)
GTAGTACTGAACGTCATCTAACAAACATGGGTCGTTCGATCGGAGTCACCTAGTGCAG	4120 fluorescence intensity (a.u.)
GGAGGGAAAGGGAAGGAAGAGAAGAGAGTATGTGGCACTGCGGAGTCACCTAGTGCAG	3660 fluorescence intensity (a.u.)
TATGGTAGTTGATGTGCAATGACTCGAGCAAATGGCGCTGCGGAGTCACCTAGTGCAG	4510 fluorescence intensity (a.u.)
ATTGCTTGTTTGAGTTGTATTATCAAATGTTACCGTAGTGCGGAGTCACCTAGTGCAG	3400 fluorescence intensity (a.u.)
GCCATCCCGCTCGAACGCCGTCTTCTTGCTGCCCCAAAGGCGGAGTCACCTAGTGCAG	22100 fluorescence intensity (a.u.)
CCAAATTGTGTTGTCACCAAACATAAGGTACTATCTGTTTCGGAGTCACCTAGTGCAG	3460 fluorescence intensity (a.u.)
ATGGTCCGTCTGAAATCTAAATGGGTCCATATCCAGGAAACGGAGTCACCTAGTGCAG	3240 fluorescence intensity (a.u.)
AGGCATTTTAACAGTAGTAAGCATTTCACAAAGTGTACCACGGAGTCACCTAGTGCAG	25000 fluorescence intensity (a.u.)
ACCACACCATCGAACATGGTGTAGCTCACGGTAGTCCCAACGGAGTCACCTAGTGCAG	41000 fluorescence intensity (a.u.)
CGCGGGTGACGCGAGAATATTCCGAGTTCATATCCTTCATCGGAGTCACCTAGTGCAG	3830 fluorescence intensity (a.u.)
CGCCAATAAAGTTGGCGCTGACACGTTATATCTCAGCGCCCGGAGTCACCTAGTGCAG	4050 fluorescence intensity (a.u.)
AATGCTAAAGATGAAAAGTGAACCACGTTGATTATCCCGACGGAGTCACCTAGTGCAG	3370 fluorescence intensity (a.u.)
GAAGGGGAGAGGGGTGGAAGGGGTAGGAGGATCGGTGAGGCGGAGTCACCTAGTGCAG	3280 fluorescence intensity (a.u.)
CATCCATCCGGTCAAAGCAGCCGGCCACGTGGCGTGTCCCCGGAGTCACCTAGTGCAG	28100 fluorescence intensity (a.u.)
GCTGTACCAGTACTGACCGGGGTGGGGTGGCGGGAGCGGACGGAGTCACCTAGTGCAG	5320 fluorescence intensity (a.u.)
AACGGCAAACCAACAGCTCGGCCGGCCTGAGAGCCGCGGGCGGAGTCACCTAGTGCAG	4660 fluorescence intensity (a.u.)
AACCGTCGCAAGACAAAATAATGGTACGCGTGGGGCCGGTCGGAGTCACCTAGTGCAG	3510 fluorescence intensity (a.u.)

For convenience, some entries already given:
Sequence	binding signal
GCAAAGCCCTCCTCTTCAGCTCTTCTGACGGAAAAGACCACGGAGTCACCTAGTGCAG	3830 fluorescence intensity (a.u.)
ACCCGACCTGCCACGTCGGACCAAGTCCAACGCATTTCCGCGGAGTCACCTAGTGCAG	12100 fluorescence intensity (a.u.)
CGTCGATGGCGTGCGTGAGAGCCTCCACGCCTTGCTGCCGCGGAGTCACCTAGTGCAG	4660 fluorescence intensity (a.u.)
